# Experimental data published in paper PMC9830504.
# Sequences of proteins named here, by UniProt entry; tags and fusion partners are left off. A change or cut given only in a name is not applied to a line headed by its entry.
# UniProt P34130: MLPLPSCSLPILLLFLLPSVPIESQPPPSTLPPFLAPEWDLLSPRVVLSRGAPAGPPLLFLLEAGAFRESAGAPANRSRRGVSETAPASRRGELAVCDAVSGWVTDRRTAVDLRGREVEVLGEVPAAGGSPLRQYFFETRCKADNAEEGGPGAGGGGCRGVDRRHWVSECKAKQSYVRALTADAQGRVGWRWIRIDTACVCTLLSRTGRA
# UniProt P78527: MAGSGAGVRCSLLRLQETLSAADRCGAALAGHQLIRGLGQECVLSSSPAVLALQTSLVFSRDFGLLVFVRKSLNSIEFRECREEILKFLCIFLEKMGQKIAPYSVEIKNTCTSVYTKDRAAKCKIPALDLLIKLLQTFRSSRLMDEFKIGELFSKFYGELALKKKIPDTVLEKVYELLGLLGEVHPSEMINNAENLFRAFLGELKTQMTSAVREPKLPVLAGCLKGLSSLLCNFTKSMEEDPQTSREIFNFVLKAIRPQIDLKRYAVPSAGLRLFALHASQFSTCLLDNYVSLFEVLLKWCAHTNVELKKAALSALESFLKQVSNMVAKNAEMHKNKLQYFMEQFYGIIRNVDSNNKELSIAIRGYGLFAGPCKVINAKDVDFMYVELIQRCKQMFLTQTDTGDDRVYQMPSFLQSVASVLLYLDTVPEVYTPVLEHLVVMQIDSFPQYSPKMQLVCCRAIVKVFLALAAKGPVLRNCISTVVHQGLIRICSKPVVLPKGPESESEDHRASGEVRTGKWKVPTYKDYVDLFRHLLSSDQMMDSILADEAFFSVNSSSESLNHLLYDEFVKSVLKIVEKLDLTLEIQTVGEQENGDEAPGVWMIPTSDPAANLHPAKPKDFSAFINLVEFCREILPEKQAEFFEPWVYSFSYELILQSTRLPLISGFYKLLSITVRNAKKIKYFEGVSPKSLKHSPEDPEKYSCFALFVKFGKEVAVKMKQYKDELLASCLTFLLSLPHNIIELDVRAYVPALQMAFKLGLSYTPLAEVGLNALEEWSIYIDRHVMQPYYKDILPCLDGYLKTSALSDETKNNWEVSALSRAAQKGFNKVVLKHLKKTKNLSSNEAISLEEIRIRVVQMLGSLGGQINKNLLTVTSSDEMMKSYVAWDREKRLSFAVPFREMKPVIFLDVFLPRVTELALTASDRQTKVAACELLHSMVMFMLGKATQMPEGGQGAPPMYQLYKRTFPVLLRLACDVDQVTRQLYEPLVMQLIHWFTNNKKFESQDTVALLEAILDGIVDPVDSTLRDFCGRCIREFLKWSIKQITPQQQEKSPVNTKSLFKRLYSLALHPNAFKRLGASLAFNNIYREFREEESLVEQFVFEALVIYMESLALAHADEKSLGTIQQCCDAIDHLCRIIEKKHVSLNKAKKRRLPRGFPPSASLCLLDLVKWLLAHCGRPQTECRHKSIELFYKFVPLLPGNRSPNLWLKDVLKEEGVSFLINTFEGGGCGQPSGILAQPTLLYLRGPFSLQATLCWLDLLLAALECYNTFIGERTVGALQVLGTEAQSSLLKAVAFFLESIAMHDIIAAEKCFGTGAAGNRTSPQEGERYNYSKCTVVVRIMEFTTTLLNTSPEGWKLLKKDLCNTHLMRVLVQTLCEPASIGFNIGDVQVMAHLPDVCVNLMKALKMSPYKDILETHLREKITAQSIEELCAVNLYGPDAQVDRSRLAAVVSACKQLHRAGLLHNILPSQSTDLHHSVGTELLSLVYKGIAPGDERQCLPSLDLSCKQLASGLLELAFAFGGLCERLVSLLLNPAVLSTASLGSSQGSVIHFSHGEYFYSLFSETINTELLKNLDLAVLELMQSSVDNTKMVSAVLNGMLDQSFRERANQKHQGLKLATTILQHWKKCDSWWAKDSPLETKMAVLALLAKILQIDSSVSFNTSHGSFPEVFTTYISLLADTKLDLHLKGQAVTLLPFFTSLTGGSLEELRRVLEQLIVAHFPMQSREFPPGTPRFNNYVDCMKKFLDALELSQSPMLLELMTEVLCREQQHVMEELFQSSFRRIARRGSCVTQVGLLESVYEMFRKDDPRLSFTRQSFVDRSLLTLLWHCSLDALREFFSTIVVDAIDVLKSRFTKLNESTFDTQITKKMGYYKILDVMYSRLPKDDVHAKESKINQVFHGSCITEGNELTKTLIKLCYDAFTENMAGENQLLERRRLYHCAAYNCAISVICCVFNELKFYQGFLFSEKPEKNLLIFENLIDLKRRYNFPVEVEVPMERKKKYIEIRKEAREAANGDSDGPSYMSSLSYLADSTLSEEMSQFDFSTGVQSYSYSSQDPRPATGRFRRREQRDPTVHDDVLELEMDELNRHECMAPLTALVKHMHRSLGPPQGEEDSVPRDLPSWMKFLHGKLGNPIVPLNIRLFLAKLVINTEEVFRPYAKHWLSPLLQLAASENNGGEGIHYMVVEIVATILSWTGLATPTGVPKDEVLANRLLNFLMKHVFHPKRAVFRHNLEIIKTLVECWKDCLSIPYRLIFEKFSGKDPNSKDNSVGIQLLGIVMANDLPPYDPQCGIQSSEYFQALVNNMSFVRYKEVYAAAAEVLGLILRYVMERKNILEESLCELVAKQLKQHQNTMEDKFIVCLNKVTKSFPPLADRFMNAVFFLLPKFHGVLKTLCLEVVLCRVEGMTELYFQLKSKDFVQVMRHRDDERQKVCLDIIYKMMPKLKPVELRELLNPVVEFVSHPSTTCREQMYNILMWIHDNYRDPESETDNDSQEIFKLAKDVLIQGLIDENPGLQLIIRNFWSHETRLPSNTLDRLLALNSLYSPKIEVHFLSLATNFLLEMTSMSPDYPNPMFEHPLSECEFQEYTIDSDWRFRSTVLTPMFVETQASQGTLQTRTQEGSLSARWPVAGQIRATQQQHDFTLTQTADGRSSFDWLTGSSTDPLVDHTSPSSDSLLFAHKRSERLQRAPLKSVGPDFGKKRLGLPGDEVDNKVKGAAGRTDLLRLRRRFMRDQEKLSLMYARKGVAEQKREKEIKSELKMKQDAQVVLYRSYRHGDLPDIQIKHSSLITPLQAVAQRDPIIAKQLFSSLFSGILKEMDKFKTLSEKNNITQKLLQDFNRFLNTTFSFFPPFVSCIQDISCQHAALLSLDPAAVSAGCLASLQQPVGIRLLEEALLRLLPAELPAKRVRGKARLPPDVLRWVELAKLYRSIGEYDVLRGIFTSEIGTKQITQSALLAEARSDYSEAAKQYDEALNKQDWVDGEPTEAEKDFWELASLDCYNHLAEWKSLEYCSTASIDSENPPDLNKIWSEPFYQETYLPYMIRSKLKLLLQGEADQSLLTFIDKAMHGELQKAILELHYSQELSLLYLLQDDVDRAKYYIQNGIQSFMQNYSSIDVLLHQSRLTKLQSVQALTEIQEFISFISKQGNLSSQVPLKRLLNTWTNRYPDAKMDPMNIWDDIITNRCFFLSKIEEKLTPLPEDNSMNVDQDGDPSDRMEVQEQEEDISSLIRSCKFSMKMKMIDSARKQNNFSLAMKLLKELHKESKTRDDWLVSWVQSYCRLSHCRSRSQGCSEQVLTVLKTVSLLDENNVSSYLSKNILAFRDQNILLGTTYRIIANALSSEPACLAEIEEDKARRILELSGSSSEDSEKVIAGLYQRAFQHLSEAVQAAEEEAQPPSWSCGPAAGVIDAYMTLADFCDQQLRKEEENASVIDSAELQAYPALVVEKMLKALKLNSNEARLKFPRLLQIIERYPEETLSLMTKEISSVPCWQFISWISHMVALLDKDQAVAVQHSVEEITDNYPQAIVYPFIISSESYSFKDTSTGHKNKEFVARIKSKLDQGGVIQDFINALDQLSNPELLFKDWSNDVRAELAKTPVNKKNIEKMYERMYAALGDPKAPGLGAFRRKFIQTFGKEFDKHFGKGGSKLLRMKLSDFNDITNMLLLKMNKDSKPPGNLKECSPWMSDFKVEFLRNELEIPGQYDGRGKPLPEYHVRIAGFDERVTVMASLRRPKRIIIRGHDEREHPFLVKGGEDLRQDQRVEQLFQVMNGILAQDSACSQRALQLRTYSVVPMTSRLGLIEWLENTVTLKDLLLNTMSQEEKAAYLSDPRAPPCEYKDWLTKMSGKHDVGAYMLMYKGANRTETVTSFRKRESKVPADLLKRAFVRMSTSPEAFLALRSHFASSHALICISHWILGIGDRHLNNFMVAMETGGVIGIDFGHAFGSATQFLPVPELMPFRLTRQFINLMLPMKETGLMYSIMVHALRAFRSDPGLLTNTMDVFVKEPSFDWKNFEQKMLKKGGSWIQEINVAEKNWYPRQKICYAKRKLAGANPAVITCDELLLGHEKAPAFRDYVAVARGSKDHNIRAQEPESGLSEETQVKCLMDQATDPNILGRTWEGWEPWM
# No constants are given. Whether binding was seen depends on the method and setting. Binding seen in cells or lysates may run through a third protein. Binding can be weak; no strength is given.
# B1: Annexin A1 (ANXA1) (protein, UniProt P04083 1-346)
# chain: MAMVSEFLKQAWFIENEEQEYVQTVKSSKGGPGSAVSPYPTFNPSSDVAALHKAIMVKGVDEATIIDILTKRNNAQRQQIKAAYLQETGKPLDETLKKALTGHLEEVVLALLKTPAQFDADELRAAMKGLGTDEDTLIEILASRTNKEIRDINRVYREELKRDLAKDITSDTSGDFRNALLSLAKGDRSEDFGVNEDLADSDARALYEAGERRKGTDVNVFNTILTTRSYPQLRRVFQKYTKYSKHDMNKVLDLELKGDIEKCLTAIVKCATSKPAFFAEKLHQAMKGVGTRHKALIRIMVSRSEIDMNDIKAFYQKMYGISLCQAILDETKGDYEKILVALCGGN
# Target: neurotrophin 4 (Flag-NTF4) (UniProt P34130)
# Assay: co-IP; Co-IP of NTF4 with PRKDC and ANXA1 on Protein A/G magnetic beads, then SDS-PAGE and immunoblot; cells and precipitating antibody not told for this panel
row,Molecule,binding
1,DNA-dependent protein kinase catalytic subunit (PRKDC) (from UniProt P78527 1-4128),binds
2,B1,binds
